According to US20060229433A1, “Modified antiviral peptides with increased activity and cell membrane affinity” (priority 2003, published 2006):
Values joined by “and” are separate entries in the source; they are usually repeats but may differ in a detail not shown here. Identical values can stand only once. Part of at least one peptide drawing is inferred or uncertain, most often the ends.

How the values were obtained:
Type in all cases: cell-based
HIV-1 NL 4-3 [1] = assay: HIV-1 infection of C8166 cells (syncytia formation, p24 ELISA) with HIV-1 NL 4-3
Procedure: (§1) HIV-1 NL 4-3 isolate (Adachi et al., 1986; Barré-Sinoussi et al., 1983) and highly cytopathic Zairian HIV-1 NDK isolate (Ellrodt et al., 1984) was propagated in permissive CEM cells (Nara et al., 1987). Uninfected CEM and C8166 (Salahuddin et al., 1983) were maintained in RPMI 1640 (R10) with ultraglutamine (cambrex, Vervier, Belgium), penicillin (100 U/ml), streptomycin (100 μg/ml), and 10% heat-inactivated fetal calf serum (Cambrex).
(§2) Samples of 3×10^5/100 μL C8166 cells were preincubated in 96-well microtiter plates in culture medium containing various concentrations of peptide. After a 1 h treatment at 37° C., 100 μl of diluted viral solution of HIV-1 was added. The cells were exposed to the virus for 1 h at 37° C. at a multiplicity of infection of 1000 TCID50 per ml. The cells were washed three times and cultured at 3×10^5/ml of R10 with the treatment in 24-well plates incubated at 37° C. C8166 culture medium was replaced at Day-4 post-infection. The treatment was permanent before virus adsorption, during virus adsorption and after infection. Assays on C8166 cells have been performed at least twice and in duplicate. Toxicity was evaluated by daily cell count and trypan-blue exclusion assay. Infection of C8166 T-cells with HIV-1 was assessed by virus-induced cytopathic effects (syncytia formation) and by quantification of cell free p24 viral protein in the culture supernatants. Measurements of HIV-1 p24^gag concentration in the culture supernatants were achieved by ELISA (ALLIANCE® HIV-1 p24 kit, Perkin Elmer, life sciences, USA).

HIV-1 NL 4-3 [2] = assay: Infection of human peripheral blood lymphocytes (PBL) with NL 4-3 strain, p24 ELISA; conditions: on PBL
Procedure: Peripheral blood lymphocytes from an HIV-1 negative donor were grown as described earlier, maintained in RPMI 1640 with ultraglutamine, supplemented with IL2 (20 μg/ml), penicillin (100 U/ml), streptomycin (100 μg/ml), and 10% heat-inactivated fetal calf serum. Cells were stimulated three days in the medium supplemented with phytohemagglutinin (20 U/ml PHA P, DIFCO, Detroit Mich.).
Samples of 10^6/100 μL PBL cells were preincubated in 96-well microtiter plates in culture medium containing various concentrations of peptides. After a 1 h treatment at 37° C., 100 μl of diluted viral solution of HIV-1 was added. The cells were exposed to the virus for 1 h at 37° C. at a multiplicity of infection of 1000 TCID50 per ml. The cells were washed three times and cultured at […] of medium with the treatment in 24-well plates incubated at 37° in culture medium with the peptides in 5% CO2. The treatment was permanent before virus adsorption, during virus adsorption and after infection. The PBL culture medium was replaced every 3-4 days during three weeks always in the presence of peptide. The cell viability was assessed by cell counts and trypan-blue exclusion assay. The viral production in the culture supernatant was quantified by p24 ELISA test, as described earlier. All the experiments have been done in blind-tests. Tests have been done in duplicate.

HIV-1 NL 4-3 [3] = assay: HIV-1 infection of C8166 cells (syncytia formation, p24 ELISA) with HIV-1 NL 4-3; design: key: ++, +, (+), (+)− and − represent decreasing numbers of syncitia formed; ++, +, (+), (+)− and − represent decreasing numbers of syncitia formed; ++, +, (+), (+)− and − represent decreasing numbers of syncitia formed; ++, +, (+), (+)− and − represent decreasing numbers of syncitia formed; ++, +, (+), (+)− and − represent decreasing numbers of syncitia formed; conditions: Table 1
Procedure: as §1, §2

HIV-1 NL 4-3 [4] = assay: as above; design: key: ++, +, (+), (+)− and − represent decreasing numbers of syncitia formed.; ++, +, (+), (+)− and − represent decreasing numbers of syncitia formed.; ++, +, (+), (+)− and − represent decreasing numbers of syncitia formed.; ++, +, (+), (+)− and − represent decreasing numbers of syncitia formed.; ++, +, (+), (+)− and − represent decreasing numbers of syncitia formed; conditions: Table 2
Procedure: as §1, §2

## C[C@H](NC(=O)[C@H](CCCNC(=N)N)NC(=O)CNC(=O)[C@@H]1CCCN1C(=O)CN)C(=O)N[C@@H](Cc1ccccc1)C(=O)NCCCC[C@H](NC(=O)[C@H](Cc1ccccc1)NC(=O)[C@H](C)NC(=O)[C@H](CCCNC(=N)N)NC(=O)CNC(=O)[C@@H]1CCCN1C(=O)CN)C(=O)NCCCC[C@H](NC(=O)[C@H](CCCCNC(=O)[C@H](Cc1ccccc1)NC(=O)[C@H](C)NC(=O)[C@H](CCCNC(=N)N)NC(=O)CNC(=O)[C@@H]1CCCN1C(=O)CN)NC(=O)[C@H](Cc1ccccc1)NC(=O)[C@H](C)NC(=O)[C@H](CCCNC(=N)N)NC(=O)CNC(=O)[C@@H]1CCCN1C(=O)CN)C(=O)NCCCC[C@H](NC(=O)[C@H](CCCCNC(=O)[C@H](CCCCNC(=O)[C@H](Cc1ccccc1)NC(=O)[C@H](C)NC(=O)[C@H](CCCNC(=N)N)NC(=O)CNC(=O)[C@@H]1CCCN1C(=O)CN)NC(=O)[C@H](Cc1ccccc1)NC(=O)[C@H](C)NC(=O)[C@H](CCCNC(=N)N)NC(=O)CNC(=O)[C@@H]1CCCN1C(=O)CN)NC(=O)[C@H](CCCCNC(=O)[C@H](Cc1ccccc1)NC(=O)[C@H](C)NC(=O)[C@H](CCCNC(=N)N)NC(=O)CNC(=O)[C@@H]1CCCN1C(=O)CN)NC(=O)[C@H](Cc1ccccc1)NC(=O)[C@H](C)NC(=O)[C@H](CCCNC(=N)N)NC(=O)CNC(=O)[C@@H]1CCCN1C(=O)CN)C(=O)NCCCCCCCC(=O)O [S1, SPC3-(η-aminocaprylic acid)]
HIV-1 NL 4-3 [1]; Day 4, 0.5 μM, Table 1
  P 24: 40 pg/mL and 45 pg/mL
HIV-1 NL 4-3 [1]; Day 4, 1 μM, Table 1
  P 24: 14 pg/mL and 10 pg/mL
HIV-1 NL 4-3 [1]; Day 4, 5 μM, Table 1
  P 24: NEG
HIV-1 NL 4-3 [1]; Day 7, 1 μM, Table 1
  P 24: 188 pg/mL and 169 pg/mL
HIV-1 NL 4-3 [1]; Day 7, 5 μM, Table 1
  P 24: 72 pg/mL and 73 pg/mL
HIV-1 NL 4-3 [2]
  IC100: 0.1 µM
HIV-1 NL 4-3 [3]; 0.5 μM
  Day 4 syncitia formed: −
  Day 5 syncitia formed: − and (+)
  Day 6 syncitia formed: +
  Day 7 syncitia formed: +
HIV-1 NL 4-3 [3]; 1 μM
  Day 4 syncitia formed: −
  Day 5 syncitia formed: (+) and −
  Day 6 syncitia formed: + and −
  Day 7 syncitia formed: + and −
HIV-1 NL 4-3 [3]; 2 μM
  Day 4 syncitia formed: −
  Day 5 syncitia formed: −
  Day 6 syncitia formed: −
  Day 7 syncitia formed: −

## C[C@H](NC(=O)[C@H](CCCNC(=N)N)NC(=O)CNC(=O)[C@@H]1CCCN1C(=O)CN)C(=O)N[C@@H](Cc1ccccc1)C(=O)NCCCC[C@H](NC(=O)[C@H](Cc1ccccc1)NC(=O)[C@H](C)NC(=O)[C@H](CCCNC(=N)N)NC(=O)CNC(=O)[C@@H]1CCCN1C(=O)CN)C(=O)NCCCC[C@H](NC(=O)[C@H](CCCCNC(=O)[C@H](Cc1ccccc1)NC(=O)[C@H](C)NC(=O)[C@H](CCCNC(=N)N)NC(=O)CNC(=O)[C@@H]1CCCN1C(=O)CN)NC(=O)[C@H](Cc1ccccc1)NC(=O)[C@H](C)NC(=O)[C@H](CCCNC(=N)N)NC(=O)CNC(=O)[C@@H]1CCCN1C(=O)CN)C(=O)NCCCC[C@H](NC(=O)[C@H](CCCCNC(=O)[C@H](CCCCNC(=O)[C@H](Cc1ccccc1)NC(=O)[C@H](C)NC(=O)[C@H](CCCNC(=N)N)NC(=O)CNC(=O)[C@@H]1CCCN1C(=O)CN)NC(=O)[C@H](Cc1ccccc1)NC(=O)[C@H](C)NC(=O)[C@H](CCCNC(=N)N)NC(=O)CNC(=O)[C@@H]1CCCN1C(=O)CN)NC(=O)[C@H](CCCCNC(=O)[C@H](Cc1ccccc1)NC(=O)[C@H](C)NC(=O)[C@H](CCCNC(=N)N)NC(=O)CNC(=O)[C@@H]1CCCN1C(=O)CN)NC(=O)[C@H](Cc1ccccc1)NC(=O)[C@H](C)NC(=O)[C@H](CCCNC(=N)N)NC(=O)CNC(=O)[C@@H]1CCCN1C(=O)CN)C(=O)NCCCC(=O)O [S6, SPC3-(γ-aminobutyric acid)]
HIV-1 NL 4-3 [4]; 0.05 μM
  Day 4 syncitia formed: (+)
  Day 5 syncitia formed: +
  Day 6 syncitia formed: ++
  Day 7 syncitia formed: ++
HIV-1 NL 4-3 [4]; 0.1 μM
  Day 4 syncitia formed: (+)
  Day 5 syncitia formed: +
  Day 6 syncitia formed: + and ++
  Day 7 syncitia formed: ++
HIV-1 NL 4-3 [4]; 0.5 μM
  Day 4 syncitia formed: −
  Day 5 syncitia formed: −
  Day 6 syncitia formed: (+) and −
  Day 7 syncitia formed: +
HIV-1 NL 4-3 [4]; 1 μM
  Day 4 syncitia formed: −
  Day 5 syncitia formed: −
  Day 6 syncitia formed: −
  Day 7 syncitia formed: −
HIV-1 NL 4-3 [1]; Day 4, 5 μM, Table 1
  P 24: NEG
HIV-1 NL 4-3 [1]; Day 4, 10 μM, Table 1
  P 24: NEG
HIV-1 NL 4-3 [1]; Day 7, 0.05 μM, Table 2
  P 24: 1271 pg/mL and 1022 pg/mL
HIV-1 NL 4-3 [1]; Day 7, 0.5 μM, Table 2
  P 24: 493 pg/mL and 288 pg/mL
HIV-1 NL 4-3 [1]; Day 7, 1 μM, Table 1
  P 24: 218 pg/mL and 186 pg/mL
HIV-1 NL 4-3 [1]; Day 7, 5 μM, Table 1
  P 24: NEG
HIV-1 NL 4-3 [1]; Day 7, 10 μM, Table 1
  P 24: NEG
HIV-1 NL 4-3 [2]
  IC100: 0.01 µM
HIV-1 NL 4-3 [3]; 0.5 μM
  Day 4 syncitia formed: −
  Day 5 syncitia formed: −
  Day 6 syncitia formed: +
  Day 7 syncitia formed: + and ++
HIV-1 NL 4-3 [3]; 1 μM
  Day 4 syncitia formed: −
  Day 5 syncitia formed: −
  Day 6 syncitia formed: (+) and −
  Day 7 syncitia formed: +
HIV-1 NL 4-3 [3]; 2 μM
  Day 4 syncitia formed: −
  Day 5 syncitia formed: −
  Day 6 syncitia formed: −
  Day 7 syncitia formed: − and +
HIV-1 NL 4-3 [3]; 5 μM
  Day 4 syncitia formed: −
  Day 5 syncitia formed: −
  Day 6 syncitia formed: −
  Day 7 syncitia formed: −
HIV-1 NL 4-3 [3]; 10 μM
  Day 4 syncitia formed: −
  Day 5 syncitia formed: −
  Day 6 syncitia formed: −
  Day 7 syncitia formed: −
